Source: PubChem BioAssay AID652243 (Drosophila RNAi Screening Center, 2013)
The screen tested about 24,000 reagents; this is an unselected part of those that have a named target and a result. Over the whole deposit, 246 (1%) were called active. 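Plates not normalised; calls are printed but the firefly/Renilla ratio behind them is not deposited; fold cut for lowering reported inconsistently.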 Raw values vary from plate to plate and are shown uncorrected. Reagents against one gene are numbered here. A plus sign joins genes that one reagent is predicted to hit. Reagent sequences are not shown. Not given: the amount of reagent.

Screen: 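Fly genes required for human androgen receptor driven transcription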 (primary screen)
Cell system: Drosophila S2R+ cells
Reagents: long dsRNA against Drosophila genes
Duration: 72 h (48 h, then 24 h hormone)
Conditions: synthetic androgen R1881 at 10 nM for 24 h
Measurement: 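Firefly light from an androgen-responsive reporter and Renilla control light per well, raw and unnormalised, for each of two replicates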
Scale: firefly reporter light: higher = more light from androgen-responsive reporter; Renilla control light: higher = more constitutive control signal (cell number, transfection)
Call rule: 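Hit when the log firefly-to-Renilla ratio dropped or increased by a fixed fold versus the mean of GFP or LacZ controls across duplicate plates; lowering cut given as 1.5 and as 3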
Meaning of the calls: active = hit: reporter lowered or raised; inactive = no hit

CG33172
- firefly reporter light, replicate 1: 5.13e5
- firefly reporter light, replicate 2: 5.49e5
- Renilla control light, replicate 1: 2.00e6
- Renilla control light, replicate 2: 2.42e6
- outcome: inactive

Utx
- firefly reporter light, replicate 1: 2.78e5
- firefly reporter light, replicate 2: 2.76e5
- Renilla control light, replicate 1: 1.76e6
- Renilla control light, replicate 2: 2.19e6
- outcome: inactive

CG3505
- firefly reporter light, replicate 1: 1.09e5
- firefly reporter light, replicate 2: 76397
- Renilla control light, replicate 1: 6.62e5
- Renilla control light, replicate 2: 7.65e5
- outcome: inactive

Jwa #1
- firefly reporter light, replicate 1: 7.19e5
- firefly reporter light, replicate 2: 7.80e5
- Renilla control light, replicate 1: 2.28e6
- Renilla control light, replicate 2: 2.40e6
- outcome: inactive

Jwa #2
- firefly reporter light, replicate 1: 2.92e5
- firefly reporter light, replicate 2: 2.70e5
- Renilla control light, replicate 1: 4.15e5
- Renilla control light, replicate 2: 4.17e5
- outcome: inactive

Scgbeta
- firefly reporter light, replicate 1: 2.99e5
- firefly reporter light, replicate 2: 2.83e5
- Renilla control light, replicate 1: 3.34e6
- Renilla control light, replicate 2: 3.31e6
- outcome: inactive

CG10274 #1
- firefly reporter light, replicate 1: 9.43e5
- firefly reporter light, replicate 2: 5.15e5
- Renilla control light, replicate 1: 1.46e6
- Renilla control light, replicate 2: 1.04e6
- outcome: inactive

CG10274 #2
- firefly reporter light, replicate 1: 8.02e5
- firefly reporter light, replicate 2: 7.75e5
- Renilla control light, replicate 1: 8.65e5
- Renilla control light, replicate 2: 8.67e5
- outcome: inactive

CG32829 #1
- firefly reporter light, replicate 1: 4.30e5
- firefly reporter light, replicate 2: 3.69e5
- Renilla control light, replicate 1: 3.04e6
- Renilla control light, replicate 2: 2.70e6
- outcome: inactive

CG32829 #2
- firefly reporter light, replicate 1: 2.83e5
- firefly reporter light, replicate 2: 5.09e5
- Renilla control light, replicate 1: 6.98e5
- Renilla control light, replicate 2: 1.38e6
- outcome: inactive

Neurochondrin #1
- firefly reporter light, replicate 1: 1.34e5
- firefly reporter light, replicate 2: 42141
- Renilla control light, replicate 1: 4.35e5
- Renilla control light, replicate 2: 3.53e5
- outcome: inactive

Neurochondrin #2
- firefly reporter light, replicate 1: 1.98e5
- firefly reporter light, replicate 2: 2.59e5
- Renilla control light, replicate 1: 5.83e5
- Renilla control light, replicate 2: 6.65e5
- outcome: inactive

The list goes on; the last 2 above are carried over.
Neurochondrin #1
- firefly reporter light, replicate 1: 1.34e5
- firefly reporter light, replicate 2: 42141
- Renilla control light, replicate 1: 4.35e5
- Renilla control light, replicate 2: 3.53e5
- outcome: inactive

Neurochondrin #2
- firefly reporter light, replicate 1: 1.98e5
- firefly reporter light, replicate 2: 2.59e5
- Renilla control light, replicate 1: 5.83e5
- Renilla control light, replicate 2: 6.65e5
- outcome: inactive

TBC1D5 #1
- firefly reporter light, replicate 1: 79017
- firefly reporter light, replicate 2: 57757
- Renilla control light, replicate 1: 3.25e5
- Renilla control light, replicate 2: 4.66e5
- outcome: inactive

TBC1D5 #2
- firefly reporter light, replicate 1: 2.57e5
- firefly reporter light, replicate 2: 1.96e5
- Renilla control light, replicate 1: 5.03e5
- Renilla control light, replicate 2: 2.14e5
- outcome: inactive

CG3419 (retired record) #1
- firefly reporter light, replicate 1: 2.44e5
- firefly reporter light, replicate 2: 6.55e5
- Renilla control light, replicate 1: 1.16e6
- Renilla control light, replicate 2: 1.12e6
- outcome: inactive

CG3419 (retired record) #2
- firefly reporter light, replicate 1: 3.85e5
- firefly reporter light, replicate 2: 4.10e5
- Renilla control light, replicate 1: 1.78e6
- Renilla control light, replicate 2: 1.94e6
- outcome: inactive

He + NimB5
- firefly reporter light, replicate 1: 4.19e5
- firefly reporter light, replicate 2: 6.77e5
- Renilla control light, replicate 1: 1.36e6
- Renilla control light, replicate 2: 1.73e6
- outcome: inactive

CG6602
- firefly reporter light, replicate 1: 46366
- firefly reporter light, replicate 2: 60443
- Renilla control light, replicate 1: 7.81e5
- Renilla control light, replicate 2: 6.78e5
- outcome: inactive

Pka-R2 #1
- firefly reporter light, replicate 1: 4.35e5
- firefly reporter light, replicate 2: 3.52e5
- Renilla control light, replicate 1: 2.40e6
- Renilla control light, replicate 2: 2.47e6
- outcome: inactive

Pka-R2 #2
- firefly reporter light, replicate 1: 1.03e6
- firefly reporter light, replicate 2: 1.14e6
- Renilla control light, replicate 1: 1.49e6
- Renilla control light, replicate 2: 1.37e6
- outcome: inactive

Cyp4p3 #1
- firefly reporter light, replicate 1: 3.05e5
- firefly reporter light, replicate 2: 2.19e5
- Renilla control light, replicate 1: 2.42e6
- Renilla control light, replicate 2: 1.69e6
- outcome: inactive

Cyp4p3 #2
- firefly reporter light, replicate 1: 4.21e5
- firefly reporter light, replicate 2: 4.09e5
- Renilla control light, replicate 1: 5.47e5
- Renilla control light, replicate 2: 6.04e5
- outcome: inactive

l(3)80Fj
- firefly reporter light, replicate 1: 1.21e6
- firefly reporter light, replicate 2: 1.08e6
- Renilla control light, replicate 1: 2.40e6
- Renilla control light, replicate 2: 1.96e6
- outcome: inactive

Obp83cd
- firefly reporter light, replicate 1: 71286
- firefly reporter light, replicate 2: 48842
- Renilla control light, replicate 1: 1.14e6
- Renilla control light, replicate 2: 8.59e5
- outcome: inactive

cutlet #1
- firefly reporter light, replicate 1: 4.40e5
- firefly reporter light, replicate 2: 7.19e5
- Renilla control light, replicate 1: 1.14e6
- Renilla control light, replicate 2: 1.57e6
- outcome: inactive

cutlet #2
- firefly reporter light, replicate 1: 3.25e5
- firefly reporter light, replicate 2: 4.56e5
- Renilla control light, replicate 1: 8.30e5
- Renilla control light, replicate 2: 8.30e5
- outcome: inactive

mRpS21 #1
- firefly reporter light, replicate 1: 1.63e5
- firefly reporter light, replicate 2: 1.87e5
- Renilla control light, replicate 1: 3.70e5
- Renilla control light, replicate 2: 3.91e5
- outcome: inactive

mRpS21 #2
- firefly reporter light, replicate 1: 8.59e5
- firefly reporter light, replicate 2: 7.71e5
- Renilla control light, replicate 1: 2.27e6
- Renilla control light, replicate 2: 1.77e6
- outcome: inactive

mRpS21 #3
- firefly reporter light, replicate 1: 4.98e5
- firefly reporter light, replicate 2: 4.66e5
- Renilla control light, replicate 1: 9.93e5
- Renilla control light, replicate 2: 1.30e6
- outcome: inactive
